IC50 data for three compounds are collected here from patent US20080287398A1, “COLD MENTHOL RECEPTOR-1 ANTAGONISTS” (priority 2007, published 2008).

Sequences of proteins named here, by UniProt entry; tags and fusion partners are left off. Residues count along the entry.
UniProt Q1A7N1, 1-1104: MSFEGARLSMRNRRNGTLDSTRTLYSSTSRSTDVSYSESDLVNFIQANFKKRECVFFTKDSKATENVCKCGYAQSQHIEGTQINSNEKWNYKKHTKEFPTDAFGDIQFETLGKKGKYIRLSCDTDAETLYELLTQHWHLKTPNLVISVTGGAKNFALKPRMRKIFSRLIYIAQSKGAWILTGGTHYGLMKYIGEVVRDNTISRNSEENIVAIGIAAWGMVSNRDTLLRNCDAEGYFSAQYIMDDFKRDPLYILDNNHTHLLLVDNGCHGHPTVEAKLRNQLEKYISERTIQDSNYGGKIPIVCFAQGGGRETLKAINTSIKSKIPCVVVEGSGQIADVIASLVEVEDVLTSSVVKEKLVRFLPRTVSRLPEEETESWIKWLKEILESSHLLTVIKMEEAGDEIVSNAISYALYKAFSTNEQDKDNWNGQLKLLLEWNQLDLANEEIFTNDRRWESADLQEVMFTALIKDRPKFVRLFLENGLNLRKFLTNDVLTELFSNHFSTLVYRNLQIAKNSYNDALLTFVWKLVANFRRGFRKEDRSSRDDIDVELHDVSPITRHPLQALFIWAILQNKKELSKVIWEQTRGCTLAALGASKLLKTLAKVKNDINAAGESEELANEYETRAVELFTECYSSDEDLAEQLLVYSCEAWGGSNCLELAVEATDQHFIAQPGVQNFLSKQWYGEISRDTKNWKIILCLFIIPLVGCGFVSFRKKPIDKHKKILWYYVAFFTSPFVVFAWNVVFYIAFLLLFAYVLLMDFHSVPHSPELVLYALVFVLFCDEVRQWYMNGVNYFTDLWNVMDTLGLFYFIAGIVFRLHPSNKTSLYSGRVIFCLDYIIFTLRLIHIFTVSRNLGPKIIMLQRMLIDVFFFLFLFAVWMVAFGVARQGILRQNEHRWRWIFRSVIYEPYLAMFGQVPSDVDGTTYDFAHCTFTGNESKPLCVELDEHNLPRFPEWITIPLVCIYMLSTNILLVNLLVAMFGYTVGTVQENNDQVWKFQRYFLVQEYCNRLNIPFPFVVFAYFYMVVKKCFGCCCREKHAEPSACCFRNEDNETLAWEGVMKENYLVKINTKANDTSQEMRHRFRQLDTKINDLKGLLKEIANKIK

The test concerns the target canine TRPM8 (Canis lupus familiaris, UniProt Q1A7N1). The test can be described thus: In vitro canine TRPM8 functional assay (Ca2+-sensitive dye, FLIPR/FDSS, icilin activation). The settings on record: HEK293 cells expressing canine TRPM8, icilin activation; eight-point dose-response. It is filed as cell-based.

Some entries of the source have several records that differ or are many. The other results are left out here. The source may hold further records. Results that share an entry do not match, cause unknown; they may come from other doses, times, organisms or constructs than stated.

For `COc1cc(CC(c2sc3ccccc3c2Br)P(=O)(OC(C)C)OC(C)C)ccc1F` (stereo not drawn), the IC50 is 3 nM and 17 nM.
As to `CC(C)OP(=O)(OC(C)C)C(Cc1ccc(F)cc1)c1sc2ccccc2c1Br` (stereo not drawn) [Cpd 197], the IC50 is 45 nM and 20 nM.
The same measure for `CC(C)OP(=O)(OC(C)C)C(Cc1ccc(F)cc1)c1sc2ccccc2c1Cl` (stereo not drawn): 66 nM and 31 nM.

In general, IC50 refers to the concentration that gives 50% inhibition. Read a low IC50 as greater potency in that assay.
